Measurements: US20240208964A1, “PYRIDOPYRIMIDINES AND METHODS OF THEIR USE” (PYRIDOPYRIMIDINES AND METHODS OF THEIR USE, priority 2020, published 2024)
The match of structure and compound is tentative.

Sequences of proteins named here, by UniProt entry; tags and fusion partners are left off.
UniProt Q9Y2I7, whole entry S696N/L932S/Q995L/T998S/S1033A/Q1183K: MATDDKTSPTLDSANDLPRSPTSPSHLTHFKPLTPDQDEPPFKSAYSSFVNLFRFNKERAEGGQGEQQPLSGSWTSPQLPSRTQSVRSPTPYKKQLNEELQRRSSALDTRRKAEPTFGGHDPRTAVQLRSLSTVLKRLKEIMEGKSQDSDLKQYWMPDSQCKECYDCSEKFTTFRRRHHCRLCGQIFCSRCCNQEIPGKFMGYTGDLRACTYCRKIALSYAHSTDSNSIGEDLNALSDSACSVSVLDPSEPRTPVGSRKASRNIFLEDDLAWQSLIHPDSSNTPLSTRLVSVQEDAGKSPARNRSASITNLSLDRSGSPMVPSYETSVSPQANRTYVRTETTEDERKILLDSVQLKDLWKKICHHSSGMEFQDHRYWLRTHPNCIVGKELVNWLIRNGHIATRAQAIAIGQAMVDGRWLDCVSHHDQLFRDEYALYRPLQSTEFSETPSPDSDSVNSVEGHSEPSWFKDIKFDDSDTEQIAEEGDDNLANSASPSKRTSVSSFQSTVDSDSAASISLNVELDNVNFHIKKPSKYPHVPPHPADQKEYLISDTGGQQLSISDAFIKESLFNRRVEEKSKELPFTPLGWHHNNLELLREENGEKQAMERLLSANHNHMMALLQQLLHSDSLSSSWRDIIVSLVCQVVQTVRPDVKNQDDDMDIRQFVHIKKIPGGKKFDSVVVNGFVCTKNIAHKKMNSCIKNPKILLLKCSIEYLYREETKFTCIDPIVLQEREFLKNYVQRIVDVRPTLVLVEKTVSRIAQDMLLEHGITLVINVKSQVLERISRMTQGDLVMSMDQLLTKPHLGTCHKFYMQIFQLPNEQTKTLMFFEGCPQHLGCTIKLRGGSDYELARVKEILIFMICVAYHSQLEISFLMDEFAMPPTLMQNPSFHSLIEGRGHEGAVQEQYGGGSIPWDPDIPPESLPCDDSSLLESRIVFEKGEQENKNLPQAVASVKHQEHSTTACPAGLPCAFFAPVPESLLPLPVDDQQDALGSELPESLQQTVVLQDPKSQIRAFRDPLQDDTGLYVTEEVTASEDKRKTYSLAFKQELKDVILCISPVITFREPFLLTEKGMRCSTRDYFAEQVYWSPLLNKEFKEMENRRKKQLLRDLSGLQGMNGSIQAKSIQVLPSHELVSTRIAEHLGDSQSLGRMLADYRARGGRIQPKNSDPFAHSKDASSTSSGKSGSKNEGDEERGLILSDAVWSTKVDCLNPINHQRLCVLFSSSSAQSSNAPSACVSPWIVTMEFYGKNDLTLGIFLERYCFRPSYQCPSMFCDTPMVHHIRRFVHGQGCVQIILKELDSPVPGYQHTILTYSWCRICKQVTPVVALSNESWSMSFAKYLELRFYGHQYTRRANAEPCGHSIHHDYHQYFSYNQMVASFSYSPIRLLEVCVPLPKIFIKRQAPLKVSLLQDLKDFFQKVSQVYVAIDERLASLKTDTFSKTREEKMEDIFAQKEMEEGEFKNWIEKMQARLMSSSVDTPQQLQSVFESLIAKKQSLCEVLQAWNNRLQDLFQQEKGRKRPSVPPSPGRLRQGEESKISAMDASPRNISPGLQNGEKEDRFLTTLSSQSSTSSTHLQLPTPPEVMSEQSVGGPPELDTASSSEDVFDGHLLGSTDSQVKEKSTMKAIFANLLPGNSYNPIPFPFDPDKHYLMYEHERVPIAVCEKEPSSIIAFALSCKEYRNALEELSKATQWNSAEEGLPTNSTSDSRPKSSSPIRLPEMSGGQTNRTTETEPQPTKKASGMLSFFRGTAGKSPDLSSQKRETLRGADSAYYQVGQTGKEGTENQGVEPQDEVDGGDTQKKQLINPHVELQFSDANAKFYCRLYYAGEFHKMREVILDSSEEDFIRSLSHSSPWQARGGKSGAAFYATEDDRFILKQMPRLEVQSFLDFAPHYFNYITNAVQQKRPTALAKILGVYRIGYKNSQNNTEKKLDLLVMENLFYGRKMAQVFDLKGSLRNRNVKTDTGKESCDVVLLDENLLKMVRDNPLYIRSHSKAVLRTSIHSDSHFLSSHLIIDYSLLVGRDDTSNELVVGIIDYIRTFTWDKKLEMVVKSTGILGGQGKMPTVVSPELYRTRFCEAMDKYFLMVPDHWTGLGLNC

Target: full-length human PIKFYVE (GST-PIKFYVE) (Homo sapiens (Human), UniProt Q9Y2I7, L932S/Q1183K/Q995L/S1033A/S696N/T998S)
Test: PIKfyve biochemical assay (ADP-Glo Kinase assay, Carna Biosciences)
Settings: read-out: hPIKfyve IC50, tested form: 3HCl

IC50: 1 to 10 µM
Compound: c1cc(-c2nc(N3CCOCC3)c3ncccc3n2)nc(C2CCNCC2)c1
